Test results from publication PMC7227341.
No constants are given. Whether binding was seen depends on the method and setting. In cells and extracts the contact can be indirect. Some results given as binding are weak or reduced against the parent protein; the word gives no strength. Sequences can lack the tags named with a protein.

By UniProt entry, the sequences of proteins in these tests, tags left out.
UniProt O15392: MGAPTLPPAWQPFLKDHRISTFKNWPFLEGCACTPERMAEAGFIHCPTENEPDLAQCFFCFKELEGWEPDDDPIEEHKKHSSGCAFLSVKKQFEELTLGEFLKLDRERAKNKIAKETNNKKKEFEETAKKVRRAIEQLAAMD

Target: Flag-Survivin (UniProt O15392)
Assay: co-IP; SCC25 cells transfected with HA-Fbxl7 and Flag-Survivin plasmids, treated with xanthohumol for 24 h or not; whole-cell lysate subjected to Co-IP and IB; which protein was precipitated is not told

B1: HA-Fbxl7 (protein, UniProt Q9UJT9 1-491)
chain: MGANNGKQYGSEGKGSSSISSDVSSSTDHTPTKAQKNVATSEDSDLSMRTLSTPSPALICPPNLPGFQNGRGSSTSSSSITGETVAMVHSPPPTRLTHPLIRLASRPQKEQASIDRLPDHSMVQIFSFLPTNQLCRCARVCRRWYNLAWDPRLWRTIRLTGETINVDRALKVLTRRLCQDTPNVCLMLETVTVSGCRRLTDRGLYTIAQCCPELRRLEVSGCYNISNEAVFDVVSLCPNLEHLDVSGCSKVTCISLTREASIKLSPLHGKQISIRYLDMTDCFVLEDEGLHTIAAHCTQLTHLYLRRCVRLTDEGLRYLVIYCASIKELSVSDCRFVSDFGLREIAKLESRLRYLSIAHCGRVTDVGIRYVAKYCSKLRYLNARGCEGITDHGVEYLAKNCTKLKSLDIGKCPLVSDTGLECLALNCFNLKRLSLKSCESITGQGLQIVAANCFDLQTLNVQDCEVSVEALRFVKRHCKRCVIEHTNPAFF
With B1 the binding was “binds”.
